The values below come from ChEMBL document CHEMBL3817793, “Recent Progress in the Discovery of Next Generation Inhibitors of Aromatase from the Structure-Function Perspective” (J Med Chem, 2016).

This test has as its target T1, Aromatase (Homo sapiens, UniProt P11511).
T1 sequence (P11511 whole entry): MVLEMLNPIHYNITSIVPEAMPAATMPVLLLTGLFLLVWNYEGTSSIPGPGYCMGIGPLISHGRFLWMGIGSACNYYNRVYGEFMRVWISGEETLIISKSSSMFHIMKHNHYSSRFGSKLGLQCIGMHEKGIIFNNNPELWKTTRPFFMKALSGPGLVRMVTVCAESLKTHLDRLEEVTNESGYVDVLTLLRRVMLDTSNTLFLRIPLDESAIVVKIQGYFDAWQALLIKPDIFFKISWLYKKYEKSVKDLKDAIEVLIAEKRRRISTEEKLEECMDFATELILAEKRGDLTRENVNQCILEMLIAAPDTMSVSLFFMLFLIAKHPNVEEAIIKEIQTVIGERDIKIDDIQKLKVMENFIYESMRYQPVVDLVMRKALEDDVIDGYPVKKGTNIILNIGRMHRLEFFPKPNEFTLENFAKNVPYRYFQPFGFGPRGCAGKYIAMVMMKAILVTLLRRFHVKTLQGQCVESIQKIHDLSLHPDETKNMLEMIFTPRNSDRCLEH

Structures are written as SMILES. pIC50: −log10 of the molar value.

`CC(C)(C#N)c1cc(Cn2cncn2)cc(C(C)(C)C#N)c1` [ANASTROZOLE] showed a negative-log IC50 (pIC50) of 8.44.
